According to PMC3380016:
These are yes or no findings as the source states them, for the method shown. In cells and extracts the contact can be indirect. Some entries that bind do so weakly or less than the wild type.

Sequences of proteins named here, by UniProt entry; tags and fusion partners are left off. A change or cut given only in a name is not applied to a line headed by its entry. A line that says so, or that is headed by a name, gives the form on record, which may keep a tag or linker. Residues count along the entry.
UniProt Q07812: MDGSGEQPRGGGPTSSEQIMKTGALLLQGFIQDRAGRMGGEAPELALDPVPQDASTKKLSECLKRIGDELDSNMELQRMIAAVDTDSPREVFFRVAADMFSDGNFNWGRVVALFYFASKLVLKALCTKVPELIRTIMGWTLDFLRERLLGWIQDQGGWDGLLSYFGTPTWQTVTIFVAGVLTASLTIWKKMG
UniProt Q03135: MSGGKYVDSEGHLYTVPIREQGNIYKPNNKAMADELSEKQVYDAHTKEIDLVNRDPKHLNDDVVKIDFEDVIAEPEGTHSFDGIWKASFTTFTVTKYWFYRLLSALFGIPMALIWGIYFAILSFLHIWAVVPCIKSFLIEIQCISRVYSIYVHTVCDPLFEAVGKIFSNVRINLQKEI
GST fused to residues 82 to 101 of caveolin-1: residues 82-101 of Q03135
UniProt P23475: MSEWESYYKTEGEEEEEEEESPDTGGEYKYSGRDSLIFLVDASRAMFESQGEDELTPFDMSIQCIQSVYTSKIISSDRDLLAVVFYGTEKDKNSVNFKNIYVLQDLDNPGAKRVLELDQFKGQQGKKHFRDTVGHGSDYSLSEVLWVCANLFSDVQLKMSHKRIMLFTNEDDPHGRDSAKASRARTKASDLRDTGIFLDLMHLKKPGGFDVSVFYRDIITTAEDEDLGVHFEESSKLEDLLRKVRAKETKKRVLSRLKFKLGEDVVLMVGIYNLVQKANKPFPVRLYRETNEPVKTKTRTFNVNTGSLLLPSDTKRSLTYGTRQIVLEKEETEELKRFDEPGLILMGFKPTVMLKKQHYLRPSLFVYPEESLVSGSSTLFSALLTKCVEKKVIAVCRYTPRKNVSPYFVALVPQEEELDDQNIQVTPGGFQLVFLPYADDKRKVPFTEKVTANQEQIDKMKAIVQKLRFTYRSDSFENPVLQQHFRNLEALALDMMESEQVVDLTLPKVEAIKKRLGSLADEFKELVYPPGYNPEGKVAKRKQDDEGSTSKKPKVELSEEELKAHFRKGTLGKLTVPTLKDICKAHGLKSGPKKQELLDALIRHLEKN
UniProt P12956: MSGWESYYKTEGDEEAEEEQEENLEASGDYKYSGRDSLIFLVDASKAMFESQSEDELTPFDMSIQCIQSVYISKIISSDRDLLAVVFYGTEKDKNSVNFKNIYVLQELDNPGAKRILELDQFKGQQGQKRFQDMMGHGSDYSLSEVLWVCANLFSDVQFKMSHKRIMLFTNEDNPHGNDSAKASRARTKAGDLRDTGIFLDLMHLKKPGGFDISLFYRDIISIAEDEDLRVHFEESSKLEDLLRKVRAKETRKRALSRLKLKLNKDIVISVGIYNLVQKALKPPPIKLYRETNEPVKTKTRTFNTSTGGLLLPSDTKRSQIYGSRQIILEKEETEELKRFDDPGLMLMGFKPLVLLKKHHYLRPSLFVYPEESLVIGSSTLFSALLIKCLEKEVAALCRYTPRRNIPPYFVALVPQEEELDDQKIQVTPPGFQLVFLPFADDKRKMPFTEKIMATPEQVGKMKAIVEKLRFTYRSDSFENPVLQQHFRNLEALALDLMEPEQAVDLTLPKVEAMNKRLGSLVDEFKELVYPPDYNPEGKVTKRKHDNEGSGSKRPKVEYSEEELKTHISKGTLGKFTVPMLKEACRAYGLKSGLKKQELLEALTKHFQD

Assays:
[1] = molecular target: Bax (human (endogenous in HCT116)) (UniProt Q07812); assay: co-IP; HCT116 cells transfected with WT Ku70-HA or Φ→A Ku70-HA, untreated or treated with 5-FU for 24 h; immunoprecipitation with anti-Bax, blots with anti-HA and anti-Bax
[2] = molecular target: caveolin-1 (human (endogenous in HCT116)) (UniProt Q03135); assay: co-IP; HCT116 cells transfected with WT Ku70-HA or Φ→A Ku70-HA, untreated or treated with 5-FU for 24 h; immunoprecipitation with anti-caveolin-1, blots with anti-HA, anti-Bax and anti-caveolin-1
[3] = molecular target: GST fused to full-length caveolin-1 (UniProt Q03135); assay: pull-down; GST-Cav-1 fusion proteins on glutathione-agarose beads; pre-cleared lysates of HCT116 cells over-expressing HA-Ku70 (wild type or Φ→A) diluted in buffer A (10 mM Tris pH 8.0, 0.1% Tween 20), overnight at 4°C; beads washed 6 times with PBS; only the target purified
[4] = molecular target: GST fused to residues 82 to 101 of caveolin-1 (UniProt Q03135); assay: as above
[5] = molecular target: caveolin-1 (human (endogenous in HCT116)) (UniProt Q03135); assay: co-IP; untreated (resting) HCT116 cells; immunoprecipitation with anti-caveolin-1, blot with anti-Ku70
[6] = molecular target: caveolin-1 (human (endogenous in HCT116)) (UniProt Q03135); assay: co-IP; HCT116 cells treated with 5-FU or etoposide for 24 hours; lysis in 10 mM Tris pH 8.0, 150 mM NaCl, 5 mM EDTA, 1% Triton X-100, 60 mM octyl glucoside; immunoprecipitation with anti-caveolin-1, blots with anti-Ku70, anti-Bax and anti-caveolin-1
[7] = molecular target: Bax (human (endogenous in HCT116)) (UniProt Q07812); assay: co-IP; HCT116 cells (untransfected or transfected with scrambled or caveolin-1 siRNA), untreated or treated with 5-FU or etoposide for 24 hours; Bax immunoprecipitation in 0.1 mM Hepes and 1% CHAPS; blots with anti-Ku70, anti-caveolin-1 and anti-Bax

wild type Ku70-HA (from UniProt P23475 1-608)
binding [1]: binds
binding [2]: binds
binding [3]: binds
binding [4]: binds

Ku70 (from UniProt P12956 1-609)
binding [5]: binds weakly
binding [6]: binds
binding [7]: binds

caveolin-1 (from UniProt Q03135 1-178)
binding [7]: binds

Bax (from UniProt Q07812 1-192)
binding [2]: binds
binding [6]: binds
